Source: article PMC12431657, “Discovery and mechanistic insights of dibenzoylmethane as a broad spectrum inhibitor of coronavirus” (PLOS Pathogens, 2025)
Counter-ions that a name gives are not always drawn. Like-named read-outs stand apart in the source and are kept apart here. Among all 3,300 compounds or so, about 60 (2%) showed an effect of 50% or more. Some of the results follow.

Test system: HCoV-OC43
Parameters: species or system RD; HTS, protection from HCoV-OC43 induced cell death, luminescent cell viability (CellCounting-Lite 2.0), inhibition rate
Conditions: 24 h post infection, 1 h compound pre-incubation, 10 µM, inhibitor

Row | SMILES | OC43 Inhibition rate | OC43 Inhibition rate (OC43 Inhibition rate, 24 h)
1 | C=Cc1ccc(O)c(OC)c1 [2-Methoxy-4-vinylphenol] | 2.1% | –
2 | COc1cc2c(=O)c(-c3ccc(O)cc3)coc2cc1O[C@@H]1O[C@H](COC(C)=O)[C@@H](O)[C@H](O)[C@H]1O [6''-O-Acetylglycitin] | -0.2% | –
3 | COc1cc(C[C@H]2COC(=O)[C@@H]2Cc2ccc(O)c(OC)c2)ccc1O [Matairesinol] | -1.2% | –
4 | COc1ccc2cc3[n+](cc2c1OC)CCc1cc2c(cc1-3)OCO2 [Berberine (sulfate)] | – | -3.2%
5 | NC(Cc1ccc(O)c(O)c1)C(=O)O (racemic) [DL-Dopa] | -1% | –
6 | Cc1c(O)cc2c(c1C)O[C@](C)(CCC[C@H](C)CCC[C@H](C)CCCC(C)C)CC2 [γ-Tocopherol] | -0.4% | –
7 | c1coc(CNc2ncnc3[nH]cnc23)c1 [Kinetin] | -0.3% | –
8 | COC(=O)c1ccc(O)c(OC)c1 [Methyl vanillate] | -0.4% | –
9 | C[C@]12CCC(=O)C=C1CC[C@@H]1[C@@H]2[C@@H](O)C[C@]2(C=O)[C@@H](C(=O)CO)CC[C@@H]12 [Aldosterone] | 0% | –
10 | CC(C)=CCO [3-Methyl-2-buten-1-ol] | 1% | –
11 | O=C(CO)[C@@H](O[C@H]1O[C@H](CO)[C@@H](O)[C@H](O)[C@H]1O)[C@H](O)[C@H](O)CO [Turanose] | -2.5% | –
12 | C=C1CC/C=C(\C)CC[C@@H]2[C@@H]1CC2(C)C [β-Caryophyllene] | 0.1% | –
13 | C[C@H]1[C@H](C)CC[C@]2(C(=O)O[C@@H]3O[C@H](CO[C@@H]4O[C@H](CO)[C@@H](O[C@@H]5O[C@H](C)[C@H](O)[C@@H](O)[C@H]5O)[C@H](O)[C@H]4O)[C@@H](O)[C@H](O)[C@H]3O)CC[C@]3(C)C(=CC[C@@H]4[C@@]5(C)C[C@@H](O)[C@H](O)[C@@](C)(CO)[C@@H]5CC[C@]43C)[C@H]12 [Asiaticoside] | -0.7% | –
14 | COc1c(O)cc2oc(-c3ccc(O)c(O)c3)cc(=O)c2c1O [Nepetin] | 0.9% | –
15 | CC(C)=CC[C@@H](OC(=O)C(C)C)C1=CC(=O)c2c(O)ccc(O)c2C1=O [Isobutylshikonin] | 19.2% | –
16 | NC(Cc1c[nH]c2ccccc12)C(=O)O (racemic) [DL-Tryptophan] | 1.2% | –
17 | COc1ccccc1/C=C/C(=O)O [2-Methoxycinnamic acid] | -1.3% | –
18 | CCCCCCCC/C=C\CCCCCCCC(=O)OCC [Ethyl oleate] | -0.1% | –
19 | O=C1CCNC(=O)N1 [Dihydrouracil] | -1.1% | –
20 | CCCCCCCCCCCCC(=O)OC [Methyl tridecanoate] | -0.1% | –
21 | CNC(=S)NC [N,N'-Dimethylthiourea] | 0.6% | –
22 | NC(=O)CC[C@H](N)C(=O)O [L-Glutamine] | 2.3% | –

Row | SMILES | OC43 Inhibition rate | OC43 Inhibition rate (OC43 Inhibition rate, 24 h)
23 | O=C(O)C1CCCCN1 (centres unmarked) [Pipecolic acid] | -1.6% | –
24 | O=[N+]([O-])c1ccc(O)c(O)c1 [4-Nitrocatechol] | -1% | –
25 | COc1cc(O)cc2c1C(=O)C[C@@H](c1ccccc1)O2 [Alpinetin] | 2.1% | –
26 | C=C[C@H]1CN2CC[C@H]1C[C@@H]2[C@@H](O)c1ccnc2ccccc12 [Cinchonine] | 0.2% | –
27 | COC1=CC(=O)c2ccccc2C1=O [Lawsone methyl ether] | -10.6% | –
28 | CCCCCCCC(O)CC(=O)O (centres unmarked) [3-Hydroxycapric acid] | 6.8% | –
29 | C[C@H]1O[C@@H](n2cnc3c(N)ncnc32)[C@H](O)[C@@H]1O [5'-Deoxyadenosine] | -0.3% | –
30 | CC=CC(=O)C1=C(C)CCCC1(C)C [β-Damascone] | -0.1% | –
31 | OC[C@H]1O[C@@H](Oc2c[nH]c3ccccc23)[C@H](O)[C@@H](O)[C@@H]1O [Indican] | -0.5% | –
32 | Cn1cnc(CCN)c1 [1-Methylhistamine (dihydrochloride)] | 4% | –
33 | COc1ccc(C(C)=O)cc1O [3-Hydroxy-4-methoxyacetophenone] | -0.4% | –
34 | CC(C)(CC(=O)O)CC(=O)O [3,3-Dimethylglutaric acid] | -0.3% | –
35 | O=C(/C=C/c1ccc(O)c(O)c1)O[C@@H]1CC(C(=O)O)=C[C@@H](O)[C@H]1O [5-O-Caffeoylshikimic acid] | -4.3% | –
36 | COC(=O)C[C@](O)(CCCC(C)(C)O)C(=O)O[C@@H]1C(OC)=C[C@]23CCCN2CCc2cc4c(cc2[C@H]13)OCO4 [Homoharringtonine] | 0.5% | –
37 | COc1cc(O)cc(OC)c1 [3,5-Dimethoxyphenol] | -0.4% | –
38 | C[C@@H](CO[C@@H]1O[C@H](CO)[C@@H](O)[C@H](O)[C@H]1O)[C@@H]1CC[C@@]2(CC[C@]3(C)[C@H](CC[C@@H]4[C@@]5(C)CC[C@H](O[C@@H]6O[C@H](CO)[C@@H](O)[C@H](O)[C@H]6O[C@@H]6O[C@H](CO)[C@@H](O)[C@H](O)[C@H]6O)[C@@](C)(CO[C@@H]6O[C@H](CO)[C@@H](O)[C@H](O)[C@H]6O)[C@@H]5CC[C@]43C)[C@H]2O)CO1 [Hosenkoside K] | -0.2% | –
39 | O[C@H]1[C@H](O)[C@@H](O)[C@H](O)[C@@H](O)[C@H]1O [i-Inositol] | 3.1% | –
40 | C=C(C)[C@@H]1CC[C@]2(CO)CC[C@]3(C)[C@H](CC[C@@H]4[C@@]5(C)CC[C@H](O)C(C)(C)[C@@H]5CC[C@]43C)[C@@H]12 [Betulin] | -0.2% | –
41 | COc1cc(C(=O)O)ccc1O [Vanillic acid] | 0.1% | –
42 | CCCCC[C@H](O)/C=C/[C@H]1[C@H](O)CC(=O)[C@@H]1C/C=C\CCCC(=O)O [Prostaglandin E2] | 0.3% | –
43 | O=C1C=CC[C@@H]2[C@H]3CCCN4CCC[C@@H](CN12)[C@@H]34 [Sophocarpine (monohydrate)] | – | 0.3%
44 | CC(C)=CC1CC(O)(C2CCC3(C)C2CCC2C4(C=O)CCC(OC5OCC(O)C(OC6OCC(O)C(O)C6O)C5OC5OC(C)C(O)C(O)C5O)C(C)(C)C4CCC23C)C(O)O1 (centres unmarked) [Gypenoside A] | 0.6% | –

3 structures out of the list, ordered by molar mass, ascending.
Row | SMILES | OC43 Inhibition rate | OC43 Inhibition rate (OC43 Inhibition rate, 24 h)
24 | O=[N+]([O-])c1ccc(O)c(O)c1 [4-Nitrocatechol] | -1% | –
25 | COc1cc(O)cc2c1C(=O)C[C@@H](c1ccccc1)O2 [Alpinetin] | 2.1% | –
36 | COC(=O)C[C@](O)(CCCC(C)(C)O)C(=O)O[C@@H]1C(OC)=C[C@]23CCCN2CCc2cc4c(cc2[C@H]13)OCO4 [Homoharringtonine] | 0.5% | –
